From patent publication US6620616B1, “Nucleic acids encoding nitric oxide synthase variants” (The Cleveland Clinic Foundation, priority 2000, dated 2003)

Assay: NADPH oxidation
Assay type: biochemical
Settings: theoretical minimum 1.5
Description: The initial rate of NO synthesis, NADPH oxidation, or cytochrome c reduction by wild type and mutants was quantitated at 25° C. as described in Abu-Soud et al. (1997) J. Biol. Chem 272: 10769-10772. H2O2-dependent nNOS oxidation of NOHA to nitrite was assayed in 96-well microplates at 30° C. The assay volume was 100 μl and contained 40 mM EPPS, pH 7.6, 250 nM nNOS or mutants, 1 mM NOHA, 1 mM DTT, 25 units/ml superoxide dismutase 0.5 mM EDTA, and 4 μM H4B. Reactions were initiated by adding 30 mM H2O2 and stopped after 10 min by adding 1300 units of catalase. Nitrite was detected at 550 nm using the Griess reagent (100 μL) and quantitated based on nitrite standards.

W409F: rat nNOS variant with phenylalanine (F) at position 409 in place of tryptophan, His6-tagged, expressed in E. coli
calculated NADPH stoichiometry: 1.6 mol of NADPH oxidized/mol of NO generated from Arg

W409Y: rat nNOS variant with tyrosine (Y) at position 409 in place of tryptophan, His6-tagged, expressed in E. coli
calculated NADPH stoichiometry: 1.5 mol of NADPH oxidized/mol of NO generated from Arg

nNOS: wild-type rat neuronal nitric oxide synthase, His6-tagged, expressed in E. coli; non-variant comparator [reference compound]
calculated NADPH stoichiometry: 1.7 mol of NADPH oxidized/mol of NO generated from Arg
